These results are taken from PubChem BioAssay AID2685 (National Center for Advancing Translational Sciences (NCATS), 2010).

The term AC50 denotes the concentration at which the activity in the assay is half-maximal.

This experiment in a line: qHTS Assay for Lipid Storage Modulators in Drosophila S3 Cells.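 For cell number change: cells counted by Cell Tracker Red CMTPX staining in the red channel.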 The conditions noted are these: BODIPY lipid droplet fluorescence, 18-24 h; for cell number change: measured here: cell count max response, cells fed with added oleic acid. Summed up:
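Laser-scanning cytometry quantifies lipid droplet accumulation (500–530 nm total intensity; droplet/cell object ratio) in oleic acid-fed (400 uM added) Drosophila S3 cells treated with a concentration series. 20 uM Triacsin C defined 100% inhibition.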

Setting [1] is: measured here: lipid fluorescence (Fed channel) AC50, cells fed with added oleic acid.
Setting [2] is: measured here: cell number channel AC50, cells fed with added oleic acid.

The other results are listed elsewhere or left out. The main result of the screen is listed elsewhere. These columns were measured beside it and carry no call. Most of these compounds were active or inconclusive in the main read-out, so they are no random draw. The note in brackets gives the kind of curve behind each potency; many fits are weak.

Consider `O=C(NCCOc1ccccc1F)C1CC(=O)N(c2ccc3c(c2)OCCO3)C1` (configuration not stated), for which the cell number change came out at 1.17%. Besides, under setting [1], the AC50 is 13 µM [rising, partial curve].

`NC(=O)c1cc2nc(-c3ccco3)cc(C(F)(F)F)n2n1`: the cell number change is -9.57%. The AC50 under setting [1] was 2.06 µM [rising, partial curve, poor fit].

On to `O=C(CCc1ccccc1)Nc1ccccc1C(=O)N1CCOCC1`, for which the cell number change is -12.1%. In addition, the AC50 under setting [1] was 0.164 µM [falling, full curve, poor fit].

For `COc1ccc(-c2csc3nc(-c4cccnc4)nc(Cl)c23)cc1OC`, the cell number change is -17%.

With `Cc1c(Cl)cccc1NC(=O)N1CCCC1`, the cell number change was -8.68%. In addition, the AC50 under setting [1] was 0.00461 µM [falling, full curve, poor fit].

Take `CC1CCc2c(nc3ncnn3c2NCCN(C)C)C1` (configuration not stated): under setting [2], the AC50 was 6.51 µM [rising, single point].

Consider `Cc1ccc(/C=N/NC(=O)c2ccc3ccccc3c2)s1`, for which the cell number change was -40.1%. Besides, under setting [2], the half-maximal activity concentration (AC50) was 32.6 µM [falling, single point]. In addition, the AC50 under setting [1] was 29.1 µM [rising, single point].

On to `O=C(NCc1ccccn1)c1ccc(=O)oc1`, for which the cell number change worked out at 7.25%. In addition, the half-maximal activity concentration (AC50) under setting [1] is 11.6 µM [falling, partial curve, poor fit].

Regarding `O=[N+]([O-])c1ccc(-c2cc(-c3ccncc3)nc3ccc4ccccc4c23)cc1`, the cell number change amounted to 4.73%. For the same molecule, the AC50 under setting [1] was 29.1 µM [rising, single point].

For `CC(C)C(Nc1ccc(S(=O)(=O)N2CCOCC2)cc1[N+](=O)[O-])C(=O)O` (configuration not stated), the cell number change is -34.7%. Moreover, the concentration at half-maximal activity (AC50) under setting [2] was 0.116 µM [falling, full curve, poor fit].

Consider `COc1ccc(C(CNC(=O)C2CCN(S(=O)(=O)c3ccc(F)cc3)CC2)N(C)C)cc1` (configuration not stated), for which, under setting [2], the half-maximal activity concentration (AC50) is 5.17 µM [rising, single point].

With `Cc1ccc(CNC(=O)COC(=O)c2ccc(S(=O)(=O)N3CCCC3)cc2)cc1`, the cell number change was -3.77%. The AC50 under setting [1] is 0.0731 µM [falling, full curve, poor fit].

In the case of `COc1cc(NC(=O)CN(C)S(=O)(=O)c2ccc3c(c2)CC(C)N3C(C)=O)cc(OC)c1OC` (configuration not stated), the cell number change was -3.28%. The AC50 under setting [1] was 0.291 µM [rising, full curve].

On to `COc1cccc(OC)c1C(=O)Nn1c(-c2cccs2)nc2ccccc2c1=O`, for which the cell number change was determined as 0.563%. Besides, the concentration at half-maximal activity (AC50) under setting [1] was 0.00731 µM [falling, full curve, poor fit].

With `Cc1ccc(CNC(=O)N2CCN(C)CC2)cc1`, the cell number change worked out at 5.82%. The concentration at half-maximal activity (AC50) under setting [1] was 0.82 µM [falling, single point].

Regarding `CCC(C)c1ccc(O)c(NC(=O)c2cncc(Br)c2)c1` (configuration not stated), the cell number change was -31.7%. Under setting [2], the half-maximal activity concentration (AC50) was 0.082 µM [falling, full curve, poor fit].

In the case of `CSc1ccc(C#N)cc1NC(=O)c1ccc(Cl)cc1`, the AC50 is 1.46 µM [rising, partial curve] under setting [2] and 1.3 µM [rising, partial curve] under setting [1].

In the case of `C=CCn1c(=O)c2c3c(sc2n2c(Nc4ccccc4)nnc12)CCCC3`, the cell number change was -5.89%. Further, the AC50 under setting [2] was 0.0517 µM [rising, full curve]. In addition, the concentration at half-maximal activity (AC50) under setting [1] is 0.058 µM [rising, full curve, poor fit].

Consider `COc1ccc(S(=O)(=O)N2CCOCC2)cc1NC(=O)CSc1nnc(C2CC2)n1N`, for which the cell number change stood at 38.3%. Under setting [2], the AC50 is 13 µM [rising, single point].

As to `CCOC(=O)C(Cc1ccccc1)(NC(C)=O)C(=O)OCC`, the cell number change is -21.9%.

`Cc1c(C)n(C)c2ccc(C(=O)NCCN3CCOCC3)cc12`: the cell number change was -1.22%. The AC50 under setting [1] was 29.1 µM [rising, single point].

Turning to `O=C(c1ccccc1)C1CN(c2ccccc2)CC1c1ccc(Cl)cc1` (configuration not stated), the cell number change amounted to 24.8%. The concentration at half-maximal activity (AC50) under setting [1] is 0.58 µM [falling, single point].

Turning to `COc1ccccc1OC(C)C(=O)Nc1ccc2c(c1)OCCO2` (configuration not stated), the cell number change stood at 3.15%.

On to `O=C(NNc1ccccc1[N+](=O)[O-])Nc1ccc(F)cc1F`, for which the cell number change was 6.58%.

Regarding `CN1CCN(S(=O)(=O)c2ccc(Oc3ccc(Br)cc3F)nc2)CC1`, the cell number change amounted to 37.3%. Further, under setting [2], the AC50 was 1.3 µM [rising, full curve]. Moreover, the half-maximal activity concentration (AC50) under setting [1] was 1.64 µM [rising, full curve].

Consider `CC1CCCN(C(=O)Cn2nnc(-c3ccc(N(C)C)cc3)n2)C1` (configuration not stated), for which the cell number change is 11.9%. Under setting [1], the AC50 was 29.1 µM [falling, single point].

Regarding `Cc1cc(C)nc(/N=C(\N)Nc2ccccc2-c2ccccc2)n1`, the cell number change is -57.8%. Also, under setting [2], the AC50 was 20.6 µM [falling, single point]. Under setting [1], the AC50 is 29.1 µM [falling, single point].

With `CCN1CCN(c2ccc(S(=O)(=O)N3CCCCC3)cc2N)CC1`, the cell number change is -17.5%. The AC50 under setting [1] was 0.58 µM [rising, partial curve].

Regarding `CC(=O)N/C(=C/c1ccc(OC(F)F)cc1)C(=O)O`, the cell number change was -24.2%. For the same molecule, the concentration at half-maximal activity (AC50) under setting [1] is 0.116 µM [falling, full curve, poor fit].

`O=C1c2ccccc2C(=O)N1Nc1ccccc1`: the cell number change is -3.74%.

With `COc1ccc(-c2ccc(-c3nnc(-c4cc(OC)ccc4OC)o3)cc2)cc1`, the cell number change is 3.59%. Further, the AC50 under setting [1] was 0.82 µM [rising, single point].

Consider `CCOc1ccc2nc(NC(=O)CSC3=NCCS3)sc2c1`, for which the cell number change is -19.9%. For the same molecule, the AC50 under setting [1] is 29.1 µM [falling, single point].

`COC(=O)Cn1cnc2sc3c(c2c1=O)CCCC3`: the cell number change is -27.8%.

For the molecule `CC(C)c1ccc(/C=N/NC(=O)c2nnn(-c3nonc3N)c2CN2CCOCC2)cc1`, the cell number change amounted to 1.61%.

With `COc1ccc(NC(=O)COC(=O)C2CC3C=CC2C3)cc1` (configuration not stated), the cell number change was 8.78%.

For `Cc1ccc(C(=O)Nc2ccccc2N2CCCCC2)o1`, the cell number change is -9.68%.

With `CC(C)(C)n1nnnc1C(c1ccncc1)N1CCN(c2ccc(O)cc2)CC1` (configuration not stated), the cell number change is 20%. Besides, the AC50 under setting [1] was 16.4 µM [rising, single point].

As to `COC(=O)c1sc(NC(=O)COc2ccccc2)nc1C`, the cell number change came to 150%. Also, the AC50 under setting [2] was 29.1 µM [rising, single point].

For `Cc1csc(C(=O)O)c1NC(=O)c1ccc(F)cc1`, the cell number change worked out at 22.5%. Moreover, the AC50 under setting [1] is 6.51 µM [rising, single point].

`Cc1ccc(NC(=O)c2ccco2)c(NC(=O)Cc2cccs2)c1`: the cell number change amounted to 27.7%. Further, the AC50 under setting [2] was 0.231 µM [rising, full curve, poor fit].

As to `N#C/C(=C\c1cccc(OCC(=O)O)c1)c1nc2ccccc2[nH]1`, the cell number change is -11%. Besides, the AC50 under setting [1] is 0.13 µM [rising, full curve, poor fit].

Take `CC1CC(C)CN(S(=O)(=O)c2ccc(NC(=O)CN3CCCCCC3)cc2)C1` (configuration not stated): the cell number change came out at 15.3%.

As to `O=C(O)CC(C(=O)Nc1ccc(Cl)cc1)N1CCCCCC1` (configuration not stated), the cell number change was found to be 1.55%.

In the case of `Clc1ccc(-c2n[nH]c3c2CCCC3)cc1`, the cell number change is -28.8%. Also, under setting [1], the concentration at half-maximal activity (AC50) was 23.1 µM [falling, single point].

For the molecule `O=C1c2ccccc2C(Nc2ccc3c(c2)OCCO3)N1c1ccc(Cl)cn1` (configuration not stated), the cell number change was found to be 43.9%. The AC50 under setting [2] is 11.6 µM [rising, partial curve, poor fit]. In addition, the AC50 under setting [1] is 10.3 µM [rising, partial curve].

On to `O=C(O)C1Cc2c([nH]c3ccccc23)C(c2ccc3c(c2)OCO3)N1` (configuration not stated), for which the cell number change was -12.2%. Also, the AC50 under setting [1] was 0.731 µM [rising, single point].

Consider `COc1ccc(C(=O)Nc2ccc3nc(N4CCCCC4)cc(C)c3c2)c(OC)c1`, for which the cell number change was 12.1%. Moreover, the concentration at half-maximal activity (AC50) under setting [1] was 0.206 µM [rising, full curve, poor fit].

Turning to `CCCCn1c(N)c(N(CCOC)C(=O)c2ccc(OCc3c(C)noc3C)cc2)c(=O)[nH]c1=O`, the cell number change is -17.1%. Besides, under setting [1], the AC50 was 32.6 µM [falling, single point].

As for `O=C(CCCCCN1C(=O)CCC1=O)Nc1ccc(Cl)c(C(F)(F)F)c1`, the cell number change worked out at 11.5%. For the same molecule, the AC50 under setting [2] was 0.92 µM [rising, full curve, poor fit].

As for `Cn1nnc(NC(=S)NC(=O)c2cccs2)n1`, the cell number change is -12.2%. Further, the AC50 under setting [1] was 6.51 µM [falling, single point].

For `COc1cc(/C=N/N2C(=O)c3ccccc3C2=O)ccc1O`, the cell number change was -19.6%. Moreover, under setting [2], the AC50 was 1.46 µM [falling, full curve, poor fit].

As for `COc1ccc(Cl)cc1S(=O)(=O)NCc1nc2nc(C)cc(C)n2n1`, the cell number change was determined as 9.51%. Besides, the AC50 under setting [1] was 10.3 µM [falling, single point].

As to `Cc1cc(NC(=O)C2CCCCC2C(=O)O)ccc1NC(=O)c1ccccc1` (configuration not stated), the cell number change stood at 24.9%. Further, under setting [1], the half-maximal activity concentration (AC50) was 29.1 µM [rising, single point].

In the case of `CCN=C1S/C(=C\c2ccc(OCC)c(OC)c2)C(=O)N1CC`, the cell number change was -22.2%. Also, the half-maximal activity concentration (AC50) under setting [1] is 16.4 µM [falling, single point].

Take `O=C(NCc1n[nH]c(=S)n1Cc1ccccc1)c1ccc(Cl)cc1Cl`: the cell number change was -10.7%.

As for `COc1cc(/C=N/Nc2ccccc2[N+](=O)[O-])cc(OC)c1O`, the cell number change was -7.88%. Also, the concentration at half-maximal activity (AC50) under setting [1] is 6.51 µM [falling, single point].

As for `O=C(CNC(=O)N1CC(=O)Nc2ccccc21)NCc1ccccc1`, the cell number change is -1.7%. The concentration at half-maximal activity (AC50) under setting [1] is 29.1 µM [rising, single point].

As for `COc1ccc(N2CCN(c3cc(C)nc4ccc(OC)cc34)CC2)cc1`, the cell number change turned out to be 13.5%. In addition, the concentration at half-maximal activity (AC50) under setting [1] was 6.51 µM [rising, single point].

`COc1ccccc1NC(=O)c1ccc(C(=O)Nc2ccccc2OC)nc1`: the cell number change is -8.81%.

For the molecule `Cc1ccc(NC(=O)CC(O)(C(F)(F)F)C(F)(F)F)cc1`, the cell number change was -56.6%. The AC50 under setting [2] was 25.9 µM [falling, single point]. Besides, the concentration at half-maximal activity (AC50) under setting [1] is 1.46 µM [falling, partial curve].

On to `COC(=O)Cc1c(C)nc2nc(NCc3c(F)cccc3Cl)[nH]n2c1=O`, for which the cell number change was -2.74%. Besides, the AC50 under setting [1] is 29.1 µM [rising, single point].

On to `CSc1cccc(NC(=O)C(C)Sc2ccc(C)cc2)c1` (configuration not stated), for which the cell number change stood at 6.96%. In addition, the AC50 under setting [1] is 16.4 µM [falling, partial curve].

Turning to `CCCCNC(=S)N/N=C/c1ccc(C)s1`, the cell number change was -45.6%. Moreover, the concentration at half-maximal activity (AC50) under setting [2] is 18.4 µM [falling, single point]. Further, the concentration at half-maximal activity (AC50) under setting [1] was 0.146 µM [falling, full curve, poor fit].

For the molecule `Cc1cccc(C(=O)NCC(=O)Nc2ccc(S(=O)(=O)Nc3nc(C)cc(C)n3)cc2)c1`, the cell number change is -13.3%.

As to `CC(=O)N1CCN2C(=O)C1CCCC(=O)c1cc(C(C)C)ccc12` (configuration not stated), the cell number change was determined as 52.6%. In addition, under setting [2], the AC50 is 14.6 µM [rising, partial curve]. Also, the AC50 under setting [1] is 23.1 µM [rising, partial curve].
